Consider 40 sequences from paper PMC7862700.

This is a selection; strong and weak results do not stand in their true shares. At the low end of the ranking, values are background and their order means little.

The assay addresses T1, ELF3 (UniProt P78545).
T1 sequence: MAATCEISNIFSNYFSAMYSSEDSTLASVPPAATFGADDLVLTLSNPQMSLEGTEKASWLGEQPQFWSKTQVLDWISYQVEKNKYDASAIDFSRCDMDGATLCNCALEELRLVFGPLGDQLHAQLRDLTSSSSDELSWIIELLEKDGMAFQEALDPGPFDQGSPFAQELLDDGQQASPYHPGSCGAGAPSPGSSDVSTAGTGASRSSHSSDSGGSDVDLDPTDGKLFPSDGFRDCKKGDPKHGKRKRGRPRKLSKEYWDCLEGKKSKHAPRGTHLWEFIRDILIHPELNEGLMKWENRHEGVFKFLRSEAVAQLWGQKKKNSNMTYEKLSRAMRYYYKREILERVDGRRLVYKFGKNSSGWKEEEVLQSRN
Description: DAPPL (digital affinity profiling via proximity ligation, sequencing). Conditions: 10 mM Tris-HCl pH 7.5, 50 mM NaCl, 1 mM DTT, 4% glycerol, room temperature, 30 min; GST-TFs on glutathione beads, 16-mer random dsDNA library, 0.1% …; high values mean tight binding; double strand, one strand shown; scale: fold enrichment (6-mer frequency, TF over GST control).
Regarding CCGGAT, the binding signal was 3.19.

With AATTGA, the binding signal stood at 1.3.

As to CGTTGT, the binding signal amounted to 0.992.

With TGGACA, the binding signal was 1.15.

In turn, TCAGCT showed a binding signal of 0.881.

TCCGAT: the binding signal worked out at 1.23.

For the sequence CTCCAT, the binding signal was determined as 0.984.

Turning to CCACTG, the binding signal was determined as 1.04.

In turn, CTGCTT registered a binding signal of 1.28.

Consider TAGATA, for which the binding signal stood at 1.08.

CGAATC: the binding signal is 1.11.

CAACGC gave a binding signal of 0.985.

Turning to CACAAC, the binding signal was 1.3.

In turn, CGATCA came in with a binding signal of 1.07.

As to TCCACC, the binding signal was 0.925.

TCCTCG displayed a binding signal of 1.53.

The sequence TTCGCT showed a binding signal of 1.26.

Sequence GTTCGC showed a binding signal of 0.97.

Sequence ACTGGT showed a binding signal of 1.06.

Turning to CTGAAA, the binding signal came out at 1.28.

Take GTACTA: the binding signal was 0.862.

In turn, TCCTGG had a binding signal of 1.17.

Turning to TGCTAG, the binding signal is 1.34.

Regarding GCAACC, the binding signal was found to be 0.965.

On to TTCCTA, for which the binding signal was determined as 1.84.

As for TCCTAA, the binding signal was found to be 1.57.

As for GAAACG, the binding signal amounted to 1.27.

Take TGGCAC: the binding signal was 1.18.

CCGACA displayed a binding signal of 1.18.

CGATAG: the binding signal worked out at 0.834.

GCTAAA came in with a binding signal of 1.07.

The sequence TGCCTA showed a binding signal of 0.991.

The sequence TTACCA yielded a binding signal of 1.1.

The sequence GATAGC registered a binding signal of 1.08.

CTGTCC registered a binding signal of 1.17.

Consider GCCACT, for which the binding signal came to 1.1.

Take CGCGGC: the binding signal is 0.98.

GATATT displayed a binding signal of 1.07.

CCTTTA came in with a binding signal of 1.51.

Regarding CTCCCC, the binding signal is 1.25.
